Construct, isoform or probe ends are uncertain for at least one entry. A weaker result is weaker than the reference pair of the same experiment. For some assays here: At least one verdict rests on a figure or table, not on a statement of the authors. Tags and fusion partners may be left off the protein sequences shown.
Tests used:
[1] = molecular target: T1, Phosphoglycerate kinase Pgk (Escherichia coli K12) (UniProt P0A799); assay: EMSA; details: 30 uM Pgk, 7 uM RNA; 50 mM Tris (HEPES for PykF), 80 mM NaCl, 10 mM KCl, 0.8 mM MgCl2, 0.5 mM DTT, pH 7.5, 30 min at 37 C (EMSA); recombinant protein; residues 1-387; protein details: N-terminal His (pCA24N, ASKA); label: 5' 32P
T1 sequence (looked up): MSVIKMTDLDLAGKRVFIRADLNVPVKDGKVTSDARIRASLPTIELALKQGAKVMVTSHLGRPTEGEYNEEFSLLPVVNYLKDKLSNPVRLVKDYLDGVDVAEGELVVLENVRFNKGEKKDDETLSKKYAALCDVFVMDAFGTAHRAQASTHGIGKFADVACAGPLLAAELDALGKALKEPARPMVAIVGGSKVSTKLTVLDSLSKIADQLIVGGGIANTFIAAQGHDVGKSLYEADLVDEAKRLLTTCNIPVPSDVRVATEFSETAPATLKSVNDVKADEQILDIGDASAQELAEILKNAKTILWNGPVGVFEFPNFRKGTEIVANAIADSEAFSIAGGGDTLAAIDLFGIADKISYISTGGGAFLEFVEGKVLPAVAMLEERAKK

[2] = molecular target: T2, Quinone oxidoreductase QorA (Escherichia coli K12) (UniProt P28304); assay: EMSA; details: 20 mM NADPH disrupts complex; 50 mM Tris (HEPES for PykF), 80 mM NaCl, 10 mM KCl, 0.8 mM MgCl2, 0.5 mM DTT, pH 7.5, 30 min at 37 C (EMSA); recombinant protein; residues 1-327; protein details: N-terminal His (pCA24N, ASKA); label: 5' 32P
T2 sequence (looked up): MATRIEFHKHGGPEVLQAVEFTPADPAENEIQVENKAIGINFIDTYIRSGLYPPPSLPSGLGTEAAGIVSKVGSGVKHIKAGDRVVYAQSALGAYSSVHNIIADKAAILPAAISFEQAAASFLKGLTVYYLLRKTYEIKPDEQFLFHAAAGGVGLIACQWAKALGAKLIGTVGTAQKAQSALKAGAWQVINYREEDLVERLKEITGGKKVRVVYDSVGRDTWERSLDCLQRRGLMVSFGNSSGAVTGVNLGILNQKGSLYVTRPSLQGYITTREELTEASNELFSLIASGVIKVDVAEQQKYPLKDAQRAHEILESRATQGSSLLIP

[3] = molecular target: T2, Quinone oxidoreductase QorA (Escherichia coli K12); assay: MST; details: 10 mM NADPH; 50 mM Tris (HEPES for PykF), 80 mM NaCl, 10 mM KCl, 0.8 mM MgCl2, 0.5 mM DTT, pH 7.5, 30 min at 37 C (EMSA); MST same buffer + 0.05% Tween-20; recombinant protein; residues 1-327; protein details: N-terminal His (pCA24N, ASKA); label: Cy5

Sequence | binding result [1] | further results
GCCGCGCUAAACAGCGCAUU [Pgk SELEX hairpin 1] | binds more weakly | 
GGAGCAUAUGGACUUCAGGGAAGGGAU [yffO mRNA fragment, 27 nt] |  | binding result [2]: binds more weakly
CCCGCGCAAAAACGCAUCGU [Pgk SELEX hairpin 3] | binds more weakly | 
GGAGCAUAUGGACUUCAGGGAAGGGAU [Cy5-yffO mRNA fragment] |  | binding result [3]: binds more weakly
AUGAGGCCAAAAAGCCGUAU [Pgk SELEX hairpin 2] | binds more weakly | 
